Results are given in words; binding and its absence hold for the method and conditions named. In cells and extracts the contact can be indirect. Some results given as binding are weak or reduced against the parent protein; the word gives no strength.
Biological target: recombinant human EphrinB2-Fc (human) (UniProt P52799)
Test: pull-down; 3 μg human EphrinB2-Fc and 30 µl Protein G-Sepharose incubated with HDLEC lysate for 3 hr at 4°C; lysis buffer 20 mM Tris-HCl pH 7.4, 150 mM NaCl, 2 mM CaCl2, 1 mM Na3VO4, 1% Triton X-100; washed five times; blot for EphB4 and phosphotyrosine (4G10); cells treated with control or EFNB2 siRNA and stimulated with pre-clustered EphrinB2-Fc or control Fc; only the target purified

Sequences of proteins named here, by UniProt entry; tags and fusion partners are left off. Residues count along the entry.
UniProt P52799, residues 28-229: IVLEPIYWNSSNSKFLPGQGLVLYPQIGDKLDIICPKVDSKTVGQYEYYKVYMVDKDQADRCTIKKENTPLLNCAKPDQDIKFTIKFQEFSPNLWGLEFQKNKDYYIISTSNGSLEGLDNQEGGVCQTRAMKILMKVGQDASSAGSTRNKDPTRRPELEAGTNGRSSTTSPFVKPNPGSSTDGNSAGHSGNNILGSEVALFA
UniProt P54760, residues 16-987: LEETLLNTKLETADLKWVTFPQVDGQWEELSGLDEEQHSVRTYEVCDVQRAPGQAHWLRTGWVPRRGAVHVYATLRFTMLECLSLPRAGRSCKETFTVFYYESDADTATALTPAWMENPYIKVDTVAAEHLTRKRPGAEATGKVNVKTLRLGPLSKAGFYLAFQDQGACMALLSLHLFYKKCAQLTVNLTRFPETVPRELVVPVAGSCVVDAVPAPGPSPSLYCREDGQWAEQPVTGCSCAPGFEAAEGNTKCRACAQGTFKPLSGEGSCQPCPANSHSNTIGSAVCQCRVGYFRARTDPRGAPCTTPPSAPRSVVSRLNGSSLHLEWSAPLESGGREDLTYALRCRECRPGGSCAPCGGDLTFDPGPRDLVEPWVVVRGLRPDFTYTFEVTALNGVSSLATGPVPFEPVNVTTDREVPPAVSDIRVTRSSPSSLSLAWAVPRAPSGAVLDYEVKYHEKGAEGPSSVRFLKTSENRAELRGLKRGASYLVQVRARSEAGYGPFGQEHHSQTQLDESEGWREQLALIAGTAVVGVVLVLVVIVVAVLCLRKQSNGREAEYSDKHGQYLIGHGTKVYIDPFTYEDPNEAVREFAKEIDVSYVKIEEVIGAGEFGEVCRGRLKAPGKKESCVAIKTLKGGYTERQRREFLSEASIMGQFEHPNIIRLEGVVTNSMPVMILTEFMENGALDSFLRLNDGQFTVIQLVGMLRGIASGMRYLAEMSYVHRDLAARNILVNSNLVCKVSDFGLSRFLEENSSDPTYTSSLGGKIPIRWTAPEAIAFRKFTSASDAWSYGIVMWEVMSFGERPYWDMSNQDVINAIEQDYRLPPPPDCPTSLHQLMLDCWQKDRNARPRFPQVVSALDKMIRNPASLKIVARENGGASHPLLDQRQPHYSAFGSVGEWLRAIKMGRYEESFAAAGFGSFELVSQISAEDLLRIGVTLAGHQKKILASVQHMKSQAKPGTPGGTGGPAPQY

binding: binds
Substance: EphB4 (from UniProt P54760 16-987) (receptor)
